This note sets out measurements from PMC12098592.

Sequences of proteins named here, by UniProt entry; tags and fusion partners are left off.
UniProt P25490: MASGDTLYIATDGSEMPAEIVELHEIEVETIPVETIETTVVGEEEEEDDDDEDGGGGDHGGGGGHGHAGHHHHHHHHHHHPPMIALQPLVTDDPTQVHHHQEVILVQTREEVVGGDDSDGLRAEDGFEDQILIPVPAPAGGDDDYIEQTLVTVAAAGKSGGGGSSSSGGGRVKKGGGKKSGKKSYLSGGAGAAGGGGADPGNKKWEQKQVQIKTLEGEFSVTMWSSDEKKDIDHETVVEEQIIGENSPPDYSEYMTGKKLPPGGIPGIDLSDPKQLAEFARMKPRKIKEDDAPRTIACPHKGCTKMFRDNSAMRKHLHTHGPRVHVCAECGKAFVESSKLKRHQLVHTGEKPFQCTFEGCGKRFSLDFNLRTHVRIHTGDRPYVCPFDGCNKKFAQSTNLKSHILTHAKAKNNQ

These are yes or no findings as the source states them, for the method shown. Binding seen in cells or lysates may run through a third protein. Some entries that bind do so weakly or less than the wild type. Sequences can lack the tags named with a protein.

In the experiment the target is T1, wild-type p53-induced phosphatase 1 (Wip1), myc-tagged (UniProt O15297).
T1 sequence: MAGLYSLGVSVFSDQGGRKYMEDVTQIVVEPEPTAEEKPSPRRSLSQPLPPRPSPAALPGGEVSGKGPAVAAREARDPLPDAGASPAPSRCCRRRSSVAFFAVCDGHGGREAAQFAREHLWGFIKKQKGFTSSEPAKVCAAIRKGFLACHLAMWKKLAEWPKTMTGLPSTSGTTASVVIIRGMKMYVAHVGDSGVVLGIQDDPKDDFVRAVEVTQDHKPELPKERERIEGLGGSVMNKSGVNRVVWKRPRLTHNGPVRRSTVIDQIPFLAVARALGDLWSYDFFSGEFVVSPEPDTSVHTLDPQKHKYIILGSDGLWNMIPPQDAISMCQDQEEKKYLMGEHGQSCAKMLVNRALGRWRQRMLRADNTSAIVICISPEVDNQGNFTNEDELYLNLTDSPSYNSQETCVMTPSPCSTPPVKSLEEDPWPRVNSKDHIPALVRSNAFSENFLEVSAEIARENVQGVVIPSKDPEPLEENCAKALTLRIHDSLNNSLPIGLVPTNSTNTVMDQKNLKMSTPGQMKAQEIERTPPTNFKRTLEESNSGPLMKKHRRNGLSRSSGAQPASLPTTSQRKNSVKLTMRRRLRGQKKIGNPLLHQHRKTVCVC
The experiment can be described thus: co-IP; HEK293T cells transfected with myc-tagged Wip1 with or without YY1 constructs for 24 hr, treated with 25 μM CCT007093 for 1 hr; lysates immunoprecipitated with anti-Wip1 or anti-YY1 Abs and protein G-sepharose beads overnight at 4°C, then immunoblotting. In general terms: Immunoblotting shows a protein as a band on a membrane.

Regarding “Ying Yang 1 (YY1) (from UniProt P25490 1-414)”, the binding entry is “binds”.
